Drawing on the supplement of paper PMC12819154, “High-throughput peptide-centric local stability assay extends protein–ligand identification to membrane proteins, tissues and bacteria” (Nature Structural & Molecular Biology, 2025), this text covers log2 fold change for 31 targets.

Protein sequences, listed by entry. Tags and fused reporters are not part of them. Lines headed by an entry give the natural chain unless they say otherwise; changes in a name come on top.
UniProt Q9JMB0: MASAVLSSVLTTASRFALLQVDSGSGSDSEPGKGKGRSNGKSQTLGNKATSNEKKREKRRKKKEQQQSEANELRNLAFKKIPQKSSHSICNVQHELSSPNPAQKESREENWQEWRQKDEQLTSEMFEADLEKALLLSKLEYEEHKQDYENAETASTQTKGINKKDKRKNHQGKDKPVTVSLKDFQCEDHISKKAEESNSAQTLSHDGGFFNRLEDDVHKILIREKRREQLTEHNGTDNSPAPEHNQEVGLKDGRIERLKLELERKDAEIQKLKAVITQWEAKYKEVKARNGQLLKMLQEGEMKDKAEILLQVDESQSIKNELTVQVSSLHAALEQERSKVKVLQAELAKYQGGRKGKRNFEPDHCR
UniProt Q9ERU3: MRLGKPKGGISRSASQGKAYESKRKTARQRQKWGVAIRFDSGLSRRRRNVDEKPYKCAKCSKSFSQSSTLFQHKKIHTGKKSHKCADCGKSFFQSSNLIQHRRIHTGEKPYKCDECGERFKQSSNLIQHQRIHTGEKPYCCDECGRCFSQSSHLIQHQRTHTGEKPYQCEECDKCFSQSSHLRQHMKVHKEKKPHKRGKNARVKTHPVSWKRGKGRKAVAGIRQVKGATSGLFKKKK
UniProt Q9JHH9: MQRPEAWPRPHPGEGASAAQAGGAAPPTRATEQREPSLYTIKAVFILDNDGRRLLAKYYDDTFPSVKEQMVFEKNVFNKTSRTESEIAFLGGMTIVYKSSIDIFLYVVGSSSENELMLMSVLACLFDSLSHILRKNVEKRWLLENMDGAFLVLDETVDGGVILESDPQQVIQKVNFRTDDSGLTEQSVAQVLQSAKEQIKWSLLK
UniProt Q9JJL3: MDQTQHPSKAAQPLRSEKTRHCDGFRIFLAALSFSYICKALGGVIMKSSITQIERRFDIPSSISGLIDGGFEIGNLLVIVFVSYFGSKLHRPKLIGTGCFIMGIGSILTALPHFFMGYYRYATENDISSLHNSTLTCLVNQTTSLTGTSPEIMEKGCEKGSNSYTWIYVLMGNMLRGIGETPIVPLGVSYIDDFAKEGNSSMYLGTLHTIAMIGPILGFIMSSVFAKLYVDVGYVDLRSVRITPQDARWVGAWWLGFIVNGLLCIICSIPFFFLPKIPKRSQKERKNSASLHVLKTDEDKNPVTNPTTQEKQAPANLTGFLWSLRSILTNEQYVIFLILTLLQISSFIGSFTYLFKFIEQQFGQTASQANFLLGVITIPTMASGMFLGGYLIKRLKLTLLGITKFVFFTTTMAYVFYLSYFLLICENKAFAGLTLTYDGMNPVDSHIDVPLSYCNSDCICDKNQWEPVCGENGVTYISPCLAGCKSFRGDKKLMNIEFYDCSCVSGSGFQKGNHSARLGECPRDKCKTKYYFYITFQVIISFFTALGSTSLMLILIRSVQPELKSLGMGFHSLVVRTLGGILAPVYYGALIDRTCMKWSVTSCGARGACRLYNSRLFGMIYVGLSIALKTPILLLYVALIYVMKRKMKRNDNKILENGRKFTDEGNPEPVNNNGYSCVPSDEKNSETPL
UniProt Q9JHI0: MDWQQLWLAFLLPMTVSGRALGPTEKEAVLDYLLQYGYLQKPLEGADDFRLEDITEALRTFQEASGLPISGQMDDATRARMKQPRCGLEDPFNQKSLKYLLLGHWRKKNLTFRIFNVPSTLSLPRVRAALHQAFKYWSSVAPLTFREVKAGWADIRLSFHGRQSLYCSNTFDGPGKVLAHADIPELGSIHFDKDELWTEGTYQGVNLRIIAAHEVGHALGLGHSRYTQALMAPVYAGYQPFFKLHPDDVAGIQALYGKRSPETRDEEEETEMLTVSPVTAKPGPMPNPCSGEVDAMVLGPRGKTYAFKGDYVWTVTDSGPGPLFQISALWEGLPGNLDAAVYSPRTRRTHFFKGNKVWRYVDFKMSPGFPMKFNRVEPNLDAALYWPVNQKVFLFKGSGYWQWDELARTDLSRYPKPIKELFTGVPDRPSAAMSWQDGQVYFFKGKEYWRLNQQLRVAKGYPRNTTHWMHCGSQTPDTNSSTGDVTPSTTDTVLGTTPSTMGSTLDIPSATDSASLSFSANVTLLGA
UniProt Q9QUG2: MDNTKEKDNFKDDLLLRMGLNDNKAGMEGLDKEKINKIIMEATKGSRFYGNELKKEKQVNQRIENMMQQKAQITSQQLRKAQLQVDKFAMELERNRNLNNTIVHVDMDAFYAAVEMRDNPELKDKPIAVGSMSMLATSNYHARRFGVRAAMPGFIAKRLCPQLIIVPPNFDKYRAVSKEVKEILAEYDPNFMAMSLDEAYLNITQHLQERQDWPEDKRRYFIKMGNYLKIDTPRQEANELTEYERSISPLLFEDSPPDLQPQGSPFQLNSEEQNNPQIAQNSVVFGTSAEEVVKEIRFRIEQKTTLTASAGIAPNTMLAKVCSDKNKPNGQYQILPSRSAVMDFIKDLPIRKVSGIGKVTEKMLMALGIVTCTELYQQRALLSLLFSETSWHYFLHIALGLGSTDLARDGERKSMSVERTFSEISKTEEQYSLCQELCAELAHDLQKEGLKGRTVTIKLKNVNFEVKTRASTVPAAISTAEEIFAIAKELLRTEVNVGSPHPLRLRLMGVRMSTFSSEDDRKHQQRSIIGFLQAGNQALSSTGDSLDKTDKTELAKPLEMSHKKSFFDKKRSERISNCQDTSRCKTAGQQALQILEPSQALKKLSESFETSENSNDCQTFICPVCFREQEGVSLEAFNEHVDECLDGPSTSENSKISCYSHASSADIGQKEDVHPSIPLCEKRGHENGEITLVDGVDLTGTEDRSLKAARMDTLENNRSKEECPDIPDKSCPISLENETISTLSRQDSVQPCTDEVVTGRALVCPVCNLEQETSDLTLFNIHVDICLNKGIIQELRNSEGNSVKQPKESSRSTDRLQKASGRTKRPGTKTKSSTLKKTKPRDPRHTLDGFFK
UniProt Q9JJW0: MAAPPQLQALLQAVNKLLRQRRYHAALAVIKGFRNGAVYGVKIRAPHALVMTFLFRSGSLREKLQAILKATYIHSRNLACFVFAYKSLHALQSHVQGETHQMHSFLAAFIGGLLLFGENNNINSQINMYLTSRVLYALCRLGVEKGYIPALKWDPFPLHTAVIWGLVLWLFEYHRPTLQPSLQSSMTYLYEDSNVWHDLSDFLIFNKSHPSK
UniProt Q9JKD3: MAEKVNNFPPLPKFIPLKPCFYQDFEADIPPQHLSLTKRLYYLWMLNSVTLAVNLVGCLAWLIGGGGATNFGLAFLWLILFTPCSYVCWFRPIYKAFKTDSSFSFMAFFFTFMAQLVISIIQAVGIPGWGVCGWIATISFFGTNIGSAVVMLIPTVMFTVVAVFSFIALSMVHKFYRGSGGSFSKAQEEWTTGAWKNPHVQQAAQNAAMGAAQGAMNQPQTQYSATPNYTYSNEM
UniProt Q9JIY5: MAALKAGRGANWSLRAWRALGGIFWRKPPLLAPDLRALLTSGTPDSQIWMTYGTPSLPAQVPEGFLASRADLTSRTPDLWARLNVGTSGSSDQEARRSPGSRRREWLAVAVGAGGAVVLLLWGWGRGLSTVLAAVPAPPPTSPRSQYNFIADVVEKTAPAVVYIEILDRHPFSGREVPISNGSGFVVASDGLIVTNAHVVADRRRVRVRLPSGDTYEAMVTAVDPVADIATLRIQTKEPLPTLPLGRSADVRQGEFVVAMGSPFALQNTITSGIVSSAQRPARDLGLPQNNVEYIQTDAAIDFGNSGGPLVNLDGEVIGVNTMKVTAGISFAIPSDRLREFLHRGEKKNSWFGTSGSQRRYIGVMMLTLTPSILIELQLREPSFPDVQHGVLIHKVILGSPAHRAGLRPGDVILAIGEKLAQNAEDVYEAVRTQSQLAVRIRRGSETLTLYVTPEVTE
UniProt Q9JMD1: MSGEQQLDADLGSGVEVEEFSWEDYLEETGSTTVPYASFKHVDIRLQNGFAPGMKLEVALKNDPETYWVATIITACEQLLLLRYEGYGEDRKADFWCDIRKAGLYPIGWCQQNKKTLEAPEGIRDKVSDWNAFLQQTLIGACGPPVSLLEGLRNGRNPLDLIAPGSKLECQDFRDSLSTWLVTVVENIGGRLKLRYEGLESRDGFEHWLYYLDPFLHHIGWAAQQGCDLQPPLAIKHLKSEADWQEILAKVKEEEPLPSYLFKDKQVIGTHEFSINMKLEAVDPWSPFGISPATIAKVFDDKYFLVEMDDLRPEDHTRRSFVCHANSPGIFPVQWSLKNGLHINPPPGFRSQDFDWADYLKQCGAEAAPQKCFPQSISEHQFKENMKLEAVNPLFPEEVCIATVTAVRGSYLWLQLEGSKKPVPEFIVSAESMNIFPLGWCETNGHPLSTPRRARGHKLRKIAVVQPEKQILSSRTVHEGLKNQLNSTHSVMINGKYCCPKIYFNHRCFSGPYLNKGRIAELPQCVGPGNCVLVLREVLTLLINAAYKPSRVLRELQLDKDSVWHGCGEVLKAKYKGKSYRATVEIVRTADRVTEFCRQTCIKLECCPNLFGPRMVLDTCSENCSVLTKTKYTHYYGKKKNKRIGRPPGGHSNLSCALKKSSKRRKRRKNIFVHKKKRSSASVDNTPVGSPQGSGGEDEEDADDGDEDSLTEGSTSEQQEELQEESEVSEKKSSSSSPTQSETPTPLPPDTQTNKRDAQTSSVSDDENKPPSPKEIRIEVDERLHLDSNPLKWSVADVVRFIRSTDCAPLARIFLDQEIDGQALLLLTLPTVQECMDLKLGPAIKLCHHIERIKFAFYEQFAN
UniProt Q9JKP5: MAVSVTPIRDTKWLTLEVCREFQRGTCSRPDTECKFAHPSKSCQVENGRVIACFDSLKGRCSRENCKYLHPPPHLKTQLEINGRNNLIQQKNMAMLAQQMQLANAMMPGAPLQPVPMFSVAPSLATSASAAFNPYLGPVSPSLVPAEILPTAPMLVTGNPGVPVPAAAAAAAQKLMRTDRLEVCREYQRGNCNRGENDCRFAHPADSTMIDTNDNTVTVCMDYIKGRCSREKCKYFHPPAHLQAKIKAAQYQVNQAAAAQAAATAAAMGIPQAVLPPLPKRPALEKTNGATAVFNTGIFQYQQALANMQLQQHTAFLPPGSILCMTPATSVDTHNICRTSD
UniProt Q9JJN6: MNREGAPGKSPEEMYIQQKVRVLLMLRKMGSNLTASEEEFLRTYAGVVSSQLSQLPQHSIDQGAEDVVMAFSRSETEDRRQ
UniProt Q9ESC8: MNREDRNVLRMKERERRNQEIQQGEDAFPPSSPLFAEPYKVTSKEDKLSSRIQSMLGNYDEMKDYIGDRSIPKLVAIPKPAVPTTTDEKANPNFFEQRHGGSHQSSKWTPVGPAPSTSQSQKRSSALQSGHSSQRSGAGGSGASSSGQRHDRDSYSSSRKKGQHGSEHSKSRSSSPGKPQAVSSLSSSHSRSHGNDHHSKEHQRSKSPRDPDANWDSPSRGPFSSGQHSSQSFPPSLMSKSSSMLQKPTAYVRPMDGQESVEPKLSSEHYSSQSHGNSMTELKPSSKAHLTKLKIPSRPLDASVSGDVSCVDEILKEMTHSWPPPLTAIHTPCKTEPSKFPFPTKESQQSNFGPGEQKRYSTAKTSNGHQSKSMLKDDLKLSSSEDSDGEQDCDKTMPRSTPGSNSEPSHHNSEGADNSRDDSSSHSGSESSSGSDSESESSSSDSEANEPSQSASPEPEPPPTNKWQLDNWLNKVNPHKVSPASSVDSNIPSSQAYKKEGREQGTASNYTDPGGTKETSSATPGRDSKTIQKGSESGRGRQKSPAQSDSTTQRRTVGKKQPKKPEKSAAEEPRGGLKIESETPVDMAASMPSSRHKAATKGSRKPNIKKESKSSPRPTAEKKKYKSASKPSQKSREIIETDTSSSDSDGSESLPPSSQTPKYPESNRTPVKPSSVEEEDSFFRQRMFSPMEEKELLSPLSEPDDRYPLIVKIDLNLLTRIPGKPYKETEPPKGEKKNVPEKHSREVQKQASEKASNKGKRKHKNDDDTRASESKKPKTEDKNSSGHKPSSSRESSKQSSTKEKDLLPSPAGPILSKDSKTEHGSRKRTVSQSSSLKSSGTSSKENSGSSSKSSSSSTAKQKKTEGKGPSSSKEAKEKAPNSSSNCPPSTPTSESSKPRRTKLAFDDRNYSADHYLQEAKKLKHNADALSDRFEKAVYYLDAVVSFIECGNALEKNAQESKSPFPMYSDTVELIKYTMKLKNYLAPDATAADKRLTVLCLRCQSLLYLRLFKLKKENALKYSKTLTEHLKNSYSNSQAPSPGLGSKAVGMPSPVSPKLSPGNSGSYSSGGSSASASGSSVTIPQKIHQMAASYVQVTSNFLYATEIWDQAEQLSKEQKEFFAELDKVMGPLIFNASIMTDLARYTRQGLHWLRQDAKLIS
UniProt Q9JJU9, whole entry: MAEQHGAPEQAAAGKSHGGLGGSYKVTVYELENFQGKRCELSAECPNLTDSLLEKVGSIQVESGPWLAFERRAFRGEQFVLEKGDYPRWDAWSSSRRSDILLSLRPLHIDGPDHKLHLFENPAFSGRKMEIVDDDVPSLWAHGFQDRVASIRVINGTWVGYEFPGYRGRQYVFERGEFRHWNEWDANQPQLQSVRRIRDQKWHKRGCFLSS
UniProt Q9JKP7: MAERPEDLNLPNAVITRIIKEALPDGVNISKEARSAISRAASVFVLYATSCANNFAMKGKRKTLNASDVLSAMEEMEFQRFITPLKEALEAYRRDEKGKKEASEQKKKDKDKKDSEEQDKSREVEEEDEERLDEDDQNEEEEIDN

The list shows a part of the results. Small differences around the control level are noise.

Compound in this assay: CN[C@@H]1C[C@H]2O[C@@](C)([C@@H]1OC)n1c3ccccc3c3c4c(c5c6ccccc6n2c5c31)C(=O)NC4 [staurosporine]
Briefly: log2 fold change of tryptic peptide abundance, ligand vs vehicle (limited proteolysis) (log2 ratio); higher = more trypsin-susceptible (destabilized). Particulars: ligand concentration: 20 uM; sample: mouse liver crude lysate; replicate design: treated separately.
Turning to “UniProt Q9JMB0 (peptide sequence: DKPVTVSLKDFQCEDHISK, peptide start residue: 174)”, the log2 fold change was -0.468.

As for “UniProt Q9JLM9 (peptide sequence: HLQLFSEFSTSHVYMSLAGKKK, peptide start residue: 274)”, the log2 fold change amounted to 0.482.

Turning to “UniProt Q9JIK9 (peptide sequence: MRPWDYPAK, peptide start residue: 198)”, the log2 fold change amounted to 0.368.

Consider “UniProt Q9QUK4 (peptide sequence: LFVPTGDGIHQVAK, peptide start residue: 1284)”, for which the log2 fold change stood at 0.378.

For the target “UniProt Q9ERU3 (peptide sequence: NVDEKPYK, peptide start residue: 49)”, the log2 fold change was -0.289.

For “UniProt Q9JIF7 (peptide sequence: LKEAELLEPLMPAIR, peptide start residue: 127)”, the log2 fold change is -0.342.

“UniProt Q9JHH9 (peptide sequence: EPSLYTIK, peptide start residue: 35)”: the log2 fold change stood at 0.268.

As for “UniProt Q9JLT4 (peptide sequence: GCVPSHIK, peptide start residue: 278)”, the log2 fold change is -0.203.

Consider “UniProt Q9JJL3 (peptide sequence: NSASLHVLK, peptide start residue: 287)”, for which the log2 fold change is -0.12.

With “UniProt Q9JJC9 (peptide sequence: THLSNVYPSKPLTKDQR, peptide start residue: 39)”, the log2 fold change worked out at 0.197.

Consider “UniProt Q9JHI0 (peptide sequence: AALHQAFK, peptide start residue: 128)”, for which the log2 fold change is -0.605.

As for “UniProt Q9QUG2 (peptide sequence: EKDNFKDDLLLR, peptide start residue: 6)”, the log2 fold change is -0.413.

Consider “UniProt Q9JK38 (peptide sequence: KFDYTVSEENYMCRR, peptide start residue: 167)”, for which the log2 fold change is -0.163.

For the target “UniProt Q9JIY8 (peptide sequence: GQTVGMVAARPVKDPLLQK, peptide start residue: 116)”, the log2 fold change is -0.15.

Consider “UniProt Q9JIM1 (peptide sequence: REESGVPGPNSPPTNR, peptide start residue: 263)”, for which the log2 fold change is -0.275.

As to “UniProt Q9JHD1 (peptide sequence: ETGWKPSGK, peptide start residue: 689)”, the log2 fold change was -0.472.

Turning to “UniProt Q9JJW0 (peptide sequence: YHAALAVIK, peptide start residue: 23)”, the log2 fold change came to 0.162.

For “UniProt Q9JK23 (peptide sequence: NIPESTEILKK, peptide start residue: 266)”, the log2 fold change was determined as 0.21.

As to “UniProt Q9JKD3 (peptide sequence: AQEEWTTGAWK, peptide start residue: 186)”, the log2 fold change is 0.423.

For the target “UniProt Q9JIY5 (peptide sequence: VILGSPAHR, peptide start residue: 396)”, the log2 fold change is -0.529.

“UniProt Q9JJZ2 (peptide sequence: DVNVAIAAIK, peptide start residue: 327)”: the log2 fold change is -0.112.

As to “UniProt Q9JMD1 (peptide sequence: YTHYYGK, peptide start residue: 632)”, the log2 fold change is -0.326.

Turning to “UniProt Q9JKJ9 (peptide sequence: NVFSALHER, peptide start residue: 113)”, the log2 fold change was determined as 0.0707.

On to “UniProt Q9JKV1 (peptide sequence: RLFFWMQEPK, peptide start residue: 104)”, for which the log2 fold change was -0.379.

As to “UniProt Q9JKP5 (peptide sequence: FAHPSKSCQVENGR, peptide start residue: 36)”, the log2 fold change was -0.154.

Regarding “UniProt Q9JJN6 (peptide sequence: VLLMLRK, peptide start residue: 22)”, the log2 fold change is 0.341.

In the case of “UniProt Q9ESC8 (peptide sequence: AVGMPSPVSPK, peptide start residue: 1047)”, the log2 fold change was found to be 0.476.

For the target “UniProt Q9JHC9 (peptide sequence: VVNITSPTHDGSSR, peptide start residue: 358)”, the log2 fold change was -0.181.

In the case of “UniProt Q9JKF6 (peptide sequence: KHVYGNGYSK, peptide start residue: 392)”, the log2 fold change is -0.575.

With “UniProt Q9JJU9 (peptide sequence: LHLFENPAFSGR, peptide start residue: 116)”, the log2 fold change was -0.194.

For the target “UniProt Q9JKP7 (peptide sequence: EALPDGVNISK, peptide start residue: 21)”, the log2 fold change turned out to be 0.0769.
